Measured data: PubChem BioAssay AID652243 (Drosophila RNAi Screening Center, 2013)
Aim: 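Knock-downs that decrease or increase androgen receptor reporter signal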 (primary screen). System: Drosophila S2R+ cells. Reagents: long dsRNA against Drosophila genes. Time to read-out: 72 h (48 h, then 24 h hormone). Treatment: synthetic androgen R1881 at 10 nM for 24 h. Detection: 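Per-well raw luminescence of the androgen-driven firefly reporter and of the Renilla control, two replicates each, without normalisation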. Direction: firefly reporter light: higher = more light from androgen-responsive reporter; Renilla control light: higher = more constitutive control signal (cell number, transfection). Hit rule: 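Hit when the log firefly-to-Renilla ratio dropped or increased by a fixed fold versus the mean of GFP or LacZ controls across duplicate plates; lowering cut given as 1.5 and as 3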. Meaning of the calls: active = hit: reporter lowered or raised; inactive = no hit.
The screen tested about 24,000 reagents; shown is a random part of those that have a named target and a result. In the full data, 246 (1%) got an active call. 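Plates not normalised; calls are printed but the firefly/Renilla ratio behind them is not deposited; fold cut for lowering reported inconsistently.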 Raw values are not corrected between plates. The record does not give: the amount of reagent.

predicted target,amplicon,"firefly reporter light, replicate 1","firefly reporter light, replicate 2","Renilla control light, replicate 1","Renilla control light, replicate 2",call
Bsg,DRSC01010,64529,46256,2.04e5,2.14e5,inactive
Bsg,DRSC01011,3.18e5,2.39e5,3.70e5,2.10e5,inactive
CG7213,DRSC10787,2.37e5,2.57e5,2.89e6,2.75e6,inactive
rha,DRSC17044,1.66e5,1.25e5,9.42e5,8.57e5,inactive
GILT1,DRSC16565,56947,56283,3.40e5,4.03e5,inactive
CG4271,DRSC00649,1.63e5,1.09e5,1.17e6,7.59e5,inactive
AttA,DRSC05926,9.57e5,7.31e5,1.97e6,1.96e6,inactive
AttA,DRSC27311,2.03e5,3.11e5,6.39e5,7.14e5,inactive
CG7296,DRSC03042,4.13e5,4.19e5,2.26e6,2.76e6,inactive
CG7296,DRSC22343,6.88e5,6.94e5,1.96e6,2.19e6,inactive
CG7296,DRSC25754,1.17e6,1.39e6,7.03e5,7.46e5,inactive
VhaAC39-2,DRSC15609,1.64e5,2.21e5,1.87e6,2.91e6,inactive
CG30062,DRSC21737,6.13e5,5.48e5,6.83e5,5.21e5,inactive
Drak,DRSC19778,2.95e5,3.12e5,1.78e6,1.51e6,inactive
Drak,DRSC23298,5.57e5,4.85e5,5.76e5,6.60e5,inactive
Drak,DRSC28871,3.74e5,3.09e5,6.82e5,6.77e5,active
Drak,DRSC36990,,,,,inactive
CG17186,DRSC15180,3.58e5,2.06e5,1.90e6,1.89e6,inactive
CG17186,DRSC27612,1.64e5,1.67e5,2.73e5,3.00e5,inactive
CG16978,DRSC02553,2.02e5,2.59e5,1.39e6,1.56e6,inactive
l(1)G0469,DRSC19412,58440,46759,4.00e5,3.66e5,inactive
l(1)G0469,DRSC19462,8.77e5,7.73e5,5.32e6,4.89e6,inactive
CAH9,DRSC15963,2.26e5,2.53e5,3.07e6,3.74e6,inactive
CAH9,DRSC29677,4.20e5,6.68e5,9.62e5,9.62e5,inactive
futsch,DRSC17688,7.68e5,1.13e6,7.53e5,7.67e5,inactive
futsch,DRSC17949,3.60e5,3.13e5,2.77e6,3.00e6,inactive
futsch,DRSC17952,75447,58767,1.13e6,9.01e5,active
futsch,DRSC18543,2.82e5,2.30e5,2.89e6,2.25e6,inactive
futsch,DRSC26427,2.36e5,1.54e5,6.86e5,3.88e5,inactive
EndoA,DRSC14775,63643,49232,3.95e5,3.69e5,inactive
EndoA,DRSC29646,2.95e5,3.81e5,8.48e5,8.48e5,inactive
Vps29,DRSC00666,7.66e5,8.17e5,1.35e6,1.07e6,inactive
GatA,DRSC16956,1.11e5,85084,1.07e6,1.07e6,inactive
Glut4EF,DRSC14512,97460,89743,1.89e6,2.32e6,inactive
Glut4EF,DRSC14541,76581,88357,2.86e6,2.16e6,inactive
Glut4EF,DRSC14542,2.10e5,1.78e5,2.70e6,1.69e6,inactive
Glut4EF,DRSC14543,1069,1183,826,,inactive
Glut4EF,DRSC23038,3.40e5,4.80e5,9.89e5,9.90e5,inactive
Glut4EF,DRSC28624,2.22e5,2.69e5,1.23e6,1.44e6,inactive
Glut4EF,DRSC29228,4.29e5,4.31e5,9.05e5,8.99e5,inactive
Glut4EF,DRSC36546,6.71e5,6.48e5,1.28e6,1.47e6,inactive
Glut4EF,DRSC36547,6.37e5,5.94e5,1.71e6,1.72e6,inactive
Glut4EF,DRSC36548,9.22e5,7.72e5,1.62e6,1.28e6,inactive
Glut4EF,DRSC36549,7.17e5,6.43e5,1.47e6,1.23e6,inactive
CG33310,DRSC01897,1.05e5,84525,1.20e6,1.19e6,inactive
CG33310,DRSC24914,8.75e5,1.31e6,1.23e6,1.16e6,inactive
CG13160,DRSC06284,4.30e5,4.60e5,1.27e6,1.03e6,inactive
CG3224,DRSC18295,2.26e5,2.99e5,2.57e6,2.67e6,inactive
toc,DRSC00169,1.36e5,1.53e5,1.65e5,1.55e5,inactive
toc,DRSC00171,1.03e5,98254,4.92e5,4.57e5,inactive
toc,DRSC00842,6.53e5,8.31e5,1.59e6,1.50e6,inactive
raskol,DRSC19202,8.41e5,1.14e6,9.73e5,8.45e5,inactive
raskol,DRSC19731,3.91e5,3.42e5,3.10e6,2.70e6,inactive
raskol,DRSC19964,4.00e5,3.84e5,3.47e6,3.75e6,inactive
raskol,DRSC21788,7.26e5,7.40e5,1.95e6,2.03e6,inactive
tomboy20,DRSC14913,1.23e5,91351,1.64e6,1.31e6,inactive
Usp16-45,DRSC18352,87188,62706,7.28e5,6.08e5,inactive
Usp16-45,DRSC26519,2.97e5,2.48e5,7.36e5,4.14e5,inactive

Hits, of those listed so far:
predicted target,amplicon,"firefly reporter light, replicate 1","firefly reporter light, replicate 2","Renilla control light, replicate 1","Renilla control light, replicate 2",call
Drak,DRSC28871,3.74e5,3.09e5,6.82e5,6.77e5,active
futsch,DRSC17952,75447,58767,1.13e6,9.01e5,active
